{
  "source": "PubChem BioAssay AID1347075",
  "about": "(National Center for Advancing Translational Sciences (NCATS), 2019)",
  "note": "Where “and” joins values, the source holds several entries; their conditions need not be identical. Equal values may be shown once. The campaign covered roughly 400,000 compounds. About 5,500 (1.4%) were called active. The inconclusive results got no clear call from the source; some entries with a clear call stand among them for comparison. Calls come from the whole dose curve; as a rule, active = well fitted cell-killing curve with a large enough effect; inconclusive = small, poorly fitted or top-dose-only effect, or effect the other way; inactive = flat fitted curve, though single readings scatter. A potency beside an inconclusive call is a rough fit, not a confirmed value. % is set by controls: 0 for no effect and ±100 for the full control effect; potency is the fitted concentration of half-maximal effect.",
  "data": [
    {"test": "qHTS assay for MDR1-selective chemotherapeutics: Primary screen using the parental adenocarcinoma cell KB-3-1; note: nearly all actives have a fitted effect of over 60% in size", "settings": "KB-3-1 viability, CellTiter-Glo ATP luminescence, 72 h; activity change, negative = cytotoxic: at 46.1 µM (top of the series)", "procedure,_shortened": "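Cytotoxicity measured as CellTiter-Glo luminescence after 72 h at 37 C. Compound titrations were pinned onto drug-naive KB-3-1 parental adenocarcinoma cells grown in DMEM with 10% FBS, and normalized data fitted to concentration-response curves.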", "values": [
      {"smiles": "Cc1ccc(C)c(-c2csc(NC(=O)c3c(C)noc3C)n2)c1", "Potency": "inactive"},
      {"smiles": "Cc1cc(NC(=O)Cn2nnc3sc4c(c3c2=O)CCC(C(C)(C)C)C4)no1", "note": "(centres undefined)", "Potency": "inconclusive: 20.6 µM [cytotoxic, single point]"},
      {"smiles": "CCCCC(=O)OC1=C(C(=O)c2ccccc2)N(CC)S(=O)(=O)c2ccccc21", "Potency": "inconclusive: 16.4 µM [cytotoxic, single point]"},
      {"smiles": "COc1ccc(-c2nn(-c3ccccc3)cc2C(=O)N(C)CC(=O)Nc2ccccc2Br)cc1", "Potency": "inconclusive: 29.1 µM [rising, single point]"},
      {"smiles": "COc1cc(/C=N/Nc2ccccc2)ccc1O", "Potency": "inactive"},
      {"smiles": "CC1(C(=O)Nc2cnc3ccccc3c2)CCN1CCc1ccccc1", "note": "(centres undefined)", "Potency": "inconclusive: 29.1 µM [cytotoxic, single point]"},
      {"smiles": "CC1CCN(S(=O)(=O)c2ccc3nc(Nc4ccc(C#N)cc4)ccc3c2)CC1", "Potency": "inconclusive: 20.6 µM [cytotoxic, single point]"},
      {"smiles": "Cc1onc(-c2c(F)cccc2Cl)c1C(=O)N(C)CC(=O)Nc1cccc(F)c1", "Potency": "inconclusive: 29.1 µM [rising, single point]"},
      {"smiles": "COC(=O)c1ccc(CSc2nc3c(cnn3-c3ccc(F)cc3)c(=O)[nH]2)o1", "Potency": "inconclusive: 18.4 µM [cytotoxic, single point]"},
      {"smiles": "COc1ccccc1N1CCN(S(=O)(=O)c2c(C)nc3sc(C)c(C)n3c2=O)CC1", "Potency": "inactive"},
      {"smiles": "CCC1CCCCN1CCCNC(=O)c1cn(CC(C)C)c(=O)c2cc(OC)c(OC)cc12", "note": "(centres undefined)", "Potency": "inconclusive: 29.1 µM [cytotoxic, single point]"},
      {"smiles": "Cc1ccccc1NC(=O)Cc1nc(COC(=O)CC(C)c2ccccc2)cs1", "note": "(centres undefined)", "Potency": "inactive"},
      {"smiles": "Cc1cc(C)c(NC(=O)/C(=C/c2ccco2)c2ccccc2)c(C)c1", "Potency": "inconclusive: 29.1 µM [cytotoxic, single point]"},
      {"smiles": "COc1ccccc1N1CCN(C(=S)Nc2ccc(S(=O)(=O)N3CCOCC3)cc2)CC1", "Potency": "inactive"},
      {"smiles": "COc1ccc(C)cc1S(=O)(=O)N(C)CC(=O)NC1CCCC1", "Potency": "inactive"},
      {"smiles": "C[C@H](CO)N1C[C@H](C)[C@@H](CN(C)Cc2ccc(Cl)c(Cl)c2)Oc2c(NS(=O)(=O)c3ccc(F)cc3)cccc2C1=O", "Potency": "inconclusive: 25.9 µM [cytotoxic, single point]"},
      {"smiles": "Cc1cccc(C(=O)N(Cc2nc3ccccc3c(=O)[nH]2)C2CCCCC2)c1", "Potency": "inconclusive: 20.6 µM [cytotoxic, partial curve, poor fit]"},
      {"smiles": "COc1ccc(N(C)S(=O)(=O)c2cccc3cccnc23)c(OC)c1", "Potency": "inconclusive: 29.1 µM [cytotoxic, single point]"},
      {"smiles": "O=C(NCc1cccc(F)c1)c1cccc(OC2CCN(C(=O)C3CC3)CC2)c1", "Potency": "inconclusive: 29.1 µM [cytotoxic, single point]"},
      {"smiles": "O=C(Cc1ccc(S(=O)(=O)N2CCOCC2)s1)N1CCN(S(=O)(=O)c2ccccc2F)CC1", "Potency": "inconclusive: 32.6 µM [cytotoxic, single point]"},
      {"smiles": "Cc1ccc(NC(=S)NCCSc2ccc(Cl)cc2)cc1", "Potency": "inactive"},
      {"smiles": "Cn1cc(C(=O)c2ccc(F)cc2)cc1-c1nc2ccccc2n1C", "Potency": "inconclusive: 29.1 µM [cytotoxic, single point]"},
      {"smiles": "Cc1ccc2c(c1)COc1c3ccc(C(=O)N[C@@H](CO)C(C)C)cc3nn1-2", "Potency": "inactive"},
      {"smiles": "O=c1c2cccnc2[nH]c(=S)n1CCCN1CCN(c2ccccc2F)CC1", "Potency": "active: 13 µM"},
      {"smiles": "O=C(NCC(=O)N1CCN(S(=O)(=O)c2ccc3c(c2)OCCO3)CC1)c1ccccc1F", "Potency": "inactive"},
      {"smiles": "CC(C)CC(=O)NC(=S)Nc1ccc(S(=O)(=O)N2CCCC2)cc1", "Potency": "inactive"},
      {"smiles": "O=C(Nc1nnc(C2CC2)s1)c1ccc(Cl)c(S(=O)(=O)N2CCc3ccccc3C2)c1", "Potency": "inconclusive: 20.6 µM [cytotoxic, single point]"},
      {"smiles": "COc1ccc(-c2csc3ncnc(N4CCN(c5ccccc5OC)CC4)c23)cc1", "Potency": "inconclusive: 23.1 µM [cytotoxic, single point]"},
      {"smiles": "CCC(=O)Nc1cccc(C2=NOC3(C2)C[C@@H](C(N)=O)N(C(=O)c2ccccc2C(=O)c2ccccc2)C3)c1", "note": "(some centres undefined)", "Potency": "inactive"},
      {"smiles": "CCCCC(=O)OC1=C(C(=O)c2ccccc2)N(C)S(=O)(=O)c2ccccc21", "activity change, negative = cytotoxic": "inconclusive: -31.8% [cytotoxic]"},
      {"smiles": "CCn1c(=O)n(CC)c2cc(S(=O)(=O)N3CCc4ccccc43)ccc21", "Potency": "inconclusive: 18.4 µM [cytotoxic, single point]"},
      {"smiles": "COc1ccc(CNc2ncnc(N)n2)cc1", "Potency": "inconclusive: 23.1 µM [cytotoxic, single point]"},
      {"smiles": "O=C(NCC1CCCN1S(=O)(=O)c1cccs1)c1ccccc1", "note": "(centres undefined)", "Potency": "inconclusive: 14.6 µM [rising, single point]"},
      {"smiles": "c1ccc(-c2n[nH]c(-c3ccccc3)c2-c2nc3ccccc3[nH]2)cc1", "Potency": "inactive"},
      {"smiles": "COc1ccc(S(=O)(=O)N2CCN(c3ccc4nnc(-c5ccccc5)n4n3)CC2)cc1", "Potency": "inconclusive: 29.1 µM [cytotoxic, single point]"},
      {"smiles": "CN(C)CCCOC(=O)c1ccccc1Cl", "Potency": "inactive"},
      {"smiles": "CCCCn1c(NC(=O)c2ccc(Br)o2)c(S(=O)(=O)c2ccccc2)c2nc3ccccc3nc21", "Potency": "inconclusive: 14.1 µM [cytotoxic, single point]"},
      {"smiles": "CCOc1ccc(CCNC(=O)Cn2nnc(-c3ccc(C(F)(F)F)cc3)n2)cc1OCC", "Potency": "inactive"},
      {"smiles": "COc1cccc2oc(-c3ccco3)cc(=O)c12", "Potency": "inconclusive: 18.4 µM [cytotoxic, single point]"},
      {"smiles": "O=C(NC1CC1)c1cccc(NC(=O)c2cnn(-c3ccccc3)n2)c1", "Potency": "inactive"},
      {"smiles": "CN(/N=C/c1cc(Br)cc(Br)c1O)c1cccc(C(F)(F)F)n1", "Potency": "inconclusive: 11.6 µM [cytotoxic, partial curve]"},
      {"smiles": "O=C(CCl)NCc1cc(-c2ccc(Cl)cc2)no1", "Potency": "inconclusive: 29.1 µM [cytotoxic, single point]"},
      {"smiles": "COc1ccc(NC(=O)COC(=O)/C=C/c2ccccc2[N+](=O)[O-])cc1", "Potency": "inconclusive: 29.1 µM [rising, single point]"},
      {"smiles": "CCOC(=O)N1CCN(c2c(-c3ccccc3)c3cc(Cl)ccc3[nH]c2=O)CC1", "Potency": "inconclusive: 13 µM [cytotoxic, partial curve, poor fit]"},
      {"smiles": "CCc1nc(N2CCN(C(=O)CCl)CC2)c2c3c(sc2n1)CC(C)CC3", "note": "(centres undefined)", "Potency": "inconclusive: 29.1 µM [cytotoxic, single point]"},
      {"smiles": "CC(=O)N1c2ccc(S(=O)(=O)N3CCCCCC3)cc2CC1C(=O)NCc1ccccc1F", "note": "(centres undefined)", "Potency": "inactive"},
      {"smiles": "Cc1ccc(C)c(N2CCN(c3ccc([N+](=O)[O-])cn3)CC2)c1", "Potency": "inconclusive: 29.1 µM [cytotoxic, single point]"},
      {"smiles": "c1coc(CSSCc2ccco2)c1", "Potency": "inconclusive: 20.6 µM [cytotoxic, partial curve, poor fit]"},
      {"smiles": "CN(c1ccc(C(=O)N2CCCCC2)cc1)S(=O)(=O)c1ccccc1", "Potency": "inactive"},
      {"smiles": "CC[C@@]1(C(=O)OC)N[C@H](CN(C)C(=O)c2ccc(C)cc2)[C@@H]2C(=O)N(Cc3ccccc3)C(=O)[C@@H]21", "Potency": "inactive"},
      {"smiles": "O=C(Nc1cccc(Cl)c1N1CCCC1)c1ccc([N+](=O)[O-])o1", "Potency": "inconclusive: 29.1 µM [cytotoxic, single point]"},
      {"smiles": "CC(=O)CSc1nsc(SCC(C)=O)c1C#N", "Potency": "inconclusive: 32.6 µM [rising, single point]"},
      {"smiles": "Cc1ccc(C(=O)Nc2ncccc2C)cc1S(=O)(=O)N1CCOCC1", "Potency": "inactive"},
      {"smiles": "c1ccc(-c2ccc(-c3nc(-c4ccccn4)no3)cc2)cc1", "Potency": "active: 13 µM"},
      {"smiles": "COc1cccc(C(O)c2ncc(-c3ccc(Cl)cc3)[nH]2)c1", "note": "(centres undefined)", "Potency": "inconclusive: 25.9 µM [cytotoxic, single point]"},
      {"smiles": "CCNc1nc(SCCOc2ccc(C)cc2)nc(N(C)C)n1", "Potency": "inconclusive: 18.4 µM [cytotoxic, single point]"},
      {"smiles": "c1coc(CN(Cc2ccco2)c2ncnc3c2oc2ccccc23)c1", "Potency": "inconclusive: 32.6 µM [cytotoxic, single point]"},
      {"smiles": "CC(=O)c1cccc(NC(=O)c2nc3ccccc3nc2N2CCCCC2)c1", "Potency": "inconclusive: 23.1 µM [rising, single point]"},
      {"smiles": "O=C(/C=C/c1ccccc1)CC(=O)c1ccccc1", "Potency": "inconclusive: 29.1 µM [cytotoxic, single point]"},
      {"smiles": "CN(C)S(=O)(=O)c1ccc(N2CCN(S(=O)(=O)c3ccc(F)cc3)CC2)c(Cl)c1", "Potency": "inconclusive: 20.6 µM [cytotoxic, single point]"},
      {"smiles": "COC(=O)[C@H](CC(C)C)N(Cc1ccccc1)S(=O)(=O)N(Cc1ccccc1)[C@@H](CC(C)C)C(=O)OC", "Potency": "inconclusive: 13 µM [cytotoxic, partial curve] and inconclusive: 29.1 µM [cytotoxic, single point]"},
      {"smiles": "COc1cccc(CNc2nc(C(F)(F)F)nc3ccccc23)c1", "Potency": "inconclusive: 18.4 µM [cytotoxic, single point]"},
      {"smiles": "CCOC(=O)C1=C(C)NC(C)=C(C(=O)OCC)C1c1ccc(O)cc1", "Potency": "inactive"},
      {"smiles": "c1ccc2c(-c3cccc4nccn34)cncc2c1", "Potency": "inactive"},
      {"smiles": "CN=C1c2ccccc2CN1c1cccc(C(=O)OC)c1", "Potency": "inactive"},
      {"smiles": "Cc1ccc2cc(C)c(Sc3nnnn3-c3ccccc3)nc2c1", "activity change, negative = cytotoxic": "inconclusive: -5.96%"},
      {"smiles": "CCOc1ccc(-c2cn3c(n2)sc2cc(C(=O)NCCc4ccc(OC)c(OC)c4)ccc23)cc1", "Potency": "inactive"},
      {"smiles": "CCC(=O)N1CCc2cc(S(=O)(=O)CCC(=O)N3CCN(c4ccc(C(C)=O)cc4)CC3)ccc21", "Potency": "inconclusive: 18.4 µM [cytotoxic, partial curve, poor fit]"},
      {"smiles": "CCOC(=O)C(Cc1ccc(O)cc1)NC(=O)CNC(=O)C1CCCN1C(=O)OC(C)(C)C", "note": "(centres undefined)", "Potency": "inconclusive: 29.1 µM [rising, single point]"}
    ]}
  ]
}
